# In PubChem BioAssay (NCATS):
# Some of the results follow. These are further read-outs of the screen, such as a control signal, another cell line or another target. No call is given for them. Most of these compounds were active or inconclusive in the main read-out, so they are no random draw. Words in brackets tell the shape of the fitted curve; partial curves, single points and poor fits give uncertain potencies.
# Assay: S16 Schwann cell PMP22 intronic element beta-lactamase assay (AID 624044)
# Conditions: S16 rat Schwann cells, PMP22 element beta-lactamase FRET, 24 h; measured here: 460 nm blue channel
# Procedure, shortened: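 Beta-lactamase reporter under a PMP22 intronic regulatory element in stable S16 rat Schwann cells; 24 h compound exposure. 460 nm blue signal normalized between DMSO (0%) and potassium clavulanate, with 535 nm FRET tracking viability; curves classed by r2 and response.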
row,Compound,AC50
1,CN=C(NC#N)Nc1ccc(C2=NNC(=O)CC2C)cc1 (centres undefined),"19.9 µM [falling, single point]"
2,NC(=O)C(c1ccccc1)(c1ccccc1)[C@@H]1CCN(CCc2ccc3c(c2)CCO3)C1,"2.82 µM [falling, full curve]"
3,Cc1[nH]cnc1CN1CCc2c(c3ccccc3n2C)C1=O,"5.01 µM [falling, full curve, poor fit]"
4,Cc1cccc(Nc2ccncc2S(=O)(=O)NC(=O)NC(C)C)c1,"0.213 µM [falling, full curve, poor fit]"
5,CC12C=CC(=O)C=C1[C@@H](F)CC1C2C(O)CC2(C)C1CC[C@]2(O)C(=O)CO (some centres undefined),"5.62 µM [falling, full curve, poor fit]"
6,O=c1[nH]c(=O)n(C2C[C@H](O)[C@@H](CO)O2)cc1C(F)(F)F (some centres undefined),"1.26 µM [falling, full curve, poor fit]"
7,O=C(O)CCC/C=C\C[C@@H]1[C@@H](/C=C/[C@@H](O)COc2cccc(Cl)c2)[C@H](O)C[C@@H]1O,"22.4 µM [falling, single point]"
8,Cc1ccccc1N1C(=O)c2cc(N)ccc2N/C1=C\F,"19.9 µM [falling, single point]"
9,CC[C@@]1(O)C(=O)OCc2c1cc1n(c2=O)Cc2cc3c([N+](=O)[O-])cccc3nc2-1,"0.999 µM [falling, full curve]"
10,COc1cc([C@H]2c3cc4c(cc3[C@@H](O[C@H]3O[C@H]5CO[C@@H](C)O[C@H]5[C@@H](O)[C@@H]3O)[C@@H]3COC(=O)[C@H]23)OCO4)cc(OC)c1O,"3.98 µM [falling, full curve]"
11,COc1ccc(CC(N)C(=O)NC2C(CO)OC(n3cnc4c(N(C)C)ncnc43)C2O)cc1 (centres undefined),"9.99 µM [falling, full curve]"
12,CCN1/C(=C/C=C/C=C/c2sc3ccccc3[n+]2CC)Sc2ccccc21,"7.94 µM [falling, full curve]"
13,C[C@H]1[C@H](NC(=O)/C(=N/OC(C)(C)C(=O)O)c2csc(N)n2)C(=O)N1S(=O)(=O)O (stereo in doubt),"1.2 µM [falling, full curve, poor fit]"
14,Cc1cc(CC(C)CC(C)(C)C)n(O)c(=O)c1 (centres undefined),"4.46 µM [falling, full curve]"
15,CC(=O)O[C@@]12CO[C@@H]1C[C@H](O)[C@@]1(C)C(=O)[C@H](O)C3=C(C)[C@@H](OC(=O)C(O)[C@@H](NC(=O)OC(C)(C)C)c4ccccc4)C[C@@](O)([C@@H](OC(=O)c4ccccc4)[C@H]21)C3(C)C (some centres undefined),"0.158 µM [falling, full curve, poor fit]"
16,Cc1cn([C@H]2C[C@H](O)[C@@H](CO)O2)c(=O)[nH]c1=O,"1.26 µM [falling, full curve, poor fit]"
17,C[S+](CC[C@H](N)C(=O)O)C[C@H]1O[C@@H](n2cnc3c(N)ncnc32)[C@H](O)[C@@H]1O (some centres undefined),"14.1 µM [falling, single point]"
18,CN=C1C=CC(=C(c2ccc(N(C)C)cc2)c2ccc(N(C)C)cc2)C=C1,"0.999 µM [falling, full curve, poor fit]"
19,CC1=CC(=C(c2ccc(N)cc2)c2ccc(N)cc2)C=CC1=N,"2.82 µM [falling, full curve]"
20,COC(=O)[C@H]1[C@H]2C[C@@H]3c4[nH]c5ccccc5c4CCN3C[C@H]2C[C@@H](OC(=O)c2cc(OC)c(OC)c(OC)c2)[C@@H]1OC,"11.2 µM [falling, full curve]"
21,C[N+]12CCC(CC1)[C@@H](OC(=O)C(O)(c1ccccc1)c1ccccc1)C2,"4.77 µM [falling, full curve, poor fit]"
22,CCOc1ccc(N=Nc2ccc(N)cc2N)cc1,"8.91 µM [falling, partial curve, poor fit]"
23,CC[C@@]1(O)C[C@H](O[C@H]2C[C@@H](N(C)C)[C@@H](O[C@H]3C[C@@H](O)[C@@H](O[C@H]4CCC(=O)[C@@H](C)O4)[C@@H](C)O3)[C@@H](C)O2)c2c(cc3c(c2O)C(=O)c2c(O)cccc2C3=O)[C@H]1C(=O)OC,"0.251 µM [falling, full curve]"
24,O=C(O)c1ccc(OCCn2ccnc2)cc1,"0.0224 µM [falling, full curve, poor fit]"

# Same assay, conditions: S16 rat Schwann cells, PMP22 element beta-lactamase FRET, 24 h; measured here: 530 nm viability channel
row,Compound,AC50
1,CCN(CC)CCOCCOC(=O)C(CC)(CC)c1ccccc1 (tested in a mixture with another compound),"11.2 µM [rising, full curve, poor fit]"
2,CNC1C(O)C(OC2C(N)CC(N)C(OC3OC(CN)=CCC3N)C2O)OCC1(C)O (centres undefined),"3.98 µM [falling, full curve]"
3,CC(CSC(=O)c1ccccc1)C(=O)N1C[C@@H](Sc2ccccc2)C[C@H]1C(=O)O (some centres undefined),"1.78 µM [falling, full curve, poor fit]"
4,CC[C@@H](C)C(N)C(=O)O (some centres undefined),"1.58 µM [falling, full curve, poor fit]"
5,O=C(O)CCc1nc2ccccc2[nH]1,"1.41 µM [falling, full curve, poor fit]"
6,Cc1c(C)c2c(c(C)c1OC(=O)CCC(=O)O)CC[C@@](C)(CCC[C@H](C)CCC[C@H](C)CCCC(C)C)O2,"25.1 µM [rising, single point]"
7,Clc1cc(Cl)c(OCC#CI)cc1Cl,"2.51 µM [falling, full curve, poor fit]"
8,Nc1ncn(C2C[C@H](O)[C@@H](CO)O2)c(=O)n1 (some centres undefined),"31.6 µM [falling, single point]"
9,CN=C(NC#N)Nc1ccc(C2=NNC(=O)CC2C)cc1 (centres undefined),"1.26 µM [falling, full curve, poor fit]"
10,NC(=O)C(c1ccccc1)(c1ccccc1)[C@@H]1CCN(CCc2ccc3c(c2)CCO3)C1,"1.58 µM [falling, full curve]"
11,Cc1[nH]cnc1CN1CCc2c(c3ccccc3n2C)C1=O,"2.24 µM [falling, full curve]"
12,Cc1cccc(Nc2ccncc2S(=O)(=O)NC(=O)NC(C)C)c1,"0.00355 µM [falling, full curve]"
13,O=C(O)CCC/C=C\C[C@@H]1[C@@H](/C=C/[C@@H](O)COc2cccc(Cl)c2)[C@H](O)C[C@@H]1O,"28.2 µM [falling, single point]"
14,Cc1ccccc1N1C(=O)c2cc(N)ccc2N/C1=C\F,"1.12 µM [falling, full curve, poor fit]"
15,CC[C@@]1(O)C(=O)OCc2c1cc1n(c2=O)Cc2cc3c([N+](=O)[O-])cccc3nc2-1,"1.12 µM [rising, full curve]"
16,COc1ccc(CC(N)C(=O)NC2C(CO)OC(n3cnc4c(N(C)C)ncnc43)C2O)cc1 (centres undefined),"7.94 µM [rising, full curve]"
17,CCN1/C(=C/C=C/C=C/c2sc3ccccc3[n+]2CC)Sc2ccccc21,"4.47 µM [falling, partial curve]"
18,C[C@H]1[C@H](NC(=O)/C(=N/OC(C)(C)C(=O)O)c2csc(N)n2)C(=O)N1S(=O)(=O)O (stereo in doubt),"1.26 µM [falling, partial curve]"
19,O=C1c2ccccc2C(=O)C1c1ccccc1,"11.2 µM [falling, single point]"
20,Cc1cc(CC(C)CC(C)(C)C)n(O)c(=O)c1 (centres undefined),"3.16 µM [rising, full curve, poor fit]"
21,Cc1cn([C@H]2C[C@H](O)[C@@H](CO)O2)c(=O)[nH]c1=O,"0.316 µM [falling, full curve]"
22,C[S+](CC[C@H](N)C(=O)O)C[C@H]1O[C@@H](n2cnc3c(N)ncnc32)[C@H](O)[C@@H]1O (some centres undefined),"2 µM [falling, full curve]"
23,CC1=CC(=C(c2ccc(N)cc2)c2ccc(N)cc2)C=CC1=N,"3.55 µM [falling, full curve]"
24,COC(=O)[C@H]1[C@H]2C[C@@H]3c4[nH]c5ccccc5c4CCN3C[C@H]2C[C@@H](OC(=O)c2cc(OC)c(OC)c(OC)c2)[C@@H]1OC,"0.224 µM [rising, full curve]"
25,C[N+]12CCC(CC1)[C@@H](OC(=O)C(O)(c1ccccc1)c1ccccc1)C2,"5.01 µM [falling, full curve, poor fit]"
